Experimental findings from the supplement of paper PMC12578635 are described below.

The list shows a part of the results. No stated cut-off is given here; in the data, active = 150% or more and inactive = the rest. Most values come without repeats; read them as rough.

The experiment has as its system Staphylococcus aureus JE2-lux inside RAW 264.7 macrophages. Briefly: intracellular bacterial bioluminescence relative to DMSO vehicle; higher = higher intracellular bacterial metabolic activity. The conditions noted are these: 10 µM; treatment time 4 h; gentamicin 50 µg/ml.
For the compound `O=c1[nH]c(NNC(=S)Nc2ccccc2)nc2sc3c(c12)CCCC3`, the intracellular bacterial bioluminescence was inactive: 116%. With `O=C(O)c1ccc2c(c1)C(=O)N(Cc1ccc3c(c1)OCO3)C2=O` the figure was inactive: 113%. With `Cc1ccc(-c2nnn3c2[nH]c(=O)c2cc(Cl)ccc23)cc1` the figure was inactive: 88.4%; with `O=C(NCCCc1ccccc1)c1c(O)nc2sccn2c1=O`, inactive: 92.8%; with `Nc1c(C(=O)NC2CCCCC2)sc2nc3c(cc12)C(=O)CCC3`, inactive: 106%.

Consider `CCOC(=O)c1ccc2nc(NC(=O)Cc3cccc4ccccc34)sc2c1`, for which the intracellular bacterial bioluminescence is inactive: 69.1%. The result for `CCOC(=O)c1c(NC(=O)C2CC(=O)NN2Cc2ccccc2)sc2c1CCC2` (stereo not drawn) reads inactive: 122%; that for `CCOC(=O)N1CCN(C(=O)CSc2ncnc3ccccc23)CC1`, inactive: 90.6%; that for `O=C(NCC(c1cccs1)S(=O)(=O)c1ccccc1)Oc1ccccc1` (stereo not drawn), inactive: 89.3%. With `O=C(O)CC1C(=O)NCCN1Cc1cccc(C(F)(F)F)c1` (stereo not drawn) the figure was inactive: 101%. With `COC(=O)c1c(NC(=O)c2ccc(C#N)cc2)sc2c1CC(C)(C)NC2(C)C` the figure was inactive: 115%; with `Cc1nc2ccc3nc(NC(=O)c4sc5ccccc5c4Cl)sc3c2s1`, inactive: 126%; with `Cc1ccc(-n2c(C)cn3c4c(=O)n(CC(N)=O)c(=O)n(C)c4nc23)cc1`, inactive: 108%. Take `O=C(CSc1nncc(=O)[nH]1)Nc1ccc2c(c1)OCO2`: the intracellular bacterial bioluminescence is inactive: 46.6%.

Take `Cc1ccc(NC2SC(=O)N(CC(=O)O)C2=O)cc1` (stereo not drawn): the intracellular bacterial bioluminescence is inactive: 131%. Regarding `COc1ccc(C(NC(=O)c2nnn(-c3ccccc3)c2C)c2ccncc2)cc1` (stereo not drawn), the intracellular bacterial bioluminescence was inactive: 48.7%. As to `CCc1cc(-c2csc(S(=O)(=O)Nc3ccc(F)c(Cl)c3)c2)on1`, the intracellular bacterial bioluminescence was inactive: 37.5%. With `O=C(CCC1CCCCC1)NCc1n[nH]c(=O)c2ccccc12` the figure was inactive: 82.4%.

Turning to `CC1CCCCN1Cc1nc2c([nH]1)c(=O)n(C)c(=O)n2C` (stereo not drawn), the intracellular bacterial bioluminescence was inactive: 106%. The result for `N#Cc1cc2cc3c(cc2nc1SCC(=O)N1CC(=O)Nc2ccccc21)OCO3` reads inactive: 111%; that for `CCCN1C(SCC(=O)Nc2ccccc2C(=O)OCC)=NS(=O)(=O)c2ccccc21`, inactive: 97%. With `Cc1cc(-c2csc(S(=O)(=O)N3CCOCC3)c2)on1` the figure was inactive: 94.7%; with `Cc1cc(C)n(-c2cc(NCC(C)c3ccccc3)ncn2)n1` (stereo not drawn), inactive: 39.4%; with `Cc1nc(-c2cccs2)c(CC(=O)Nc2ccc(Br)cc2)s1`, inactive: 113%. The result for `Cc1cccc2c(O)c(C(=O)N3CCC(C)CC3)cnc12` reads inactive: 101%.

Regarding `COc1cccc(CNC(=O)Cn2cnc3onc(-c4ccc(Cl)cc4)c3c2=O)c1OC`, the intracellular bacterial bioluminescence is inactive: 87.1%. The result for `CC(NC(=O)CCCc1nnc2c(=O)n(-c3ccc(Cl)cc3)ccn12)c1ccccc1` (stereo not drawn) reads inactive: 125%. Regarding `Cc1cc(C)cc(-n2ncc3c(N4CCN(c5ccc(F)cc5)CC4)ncnc32)c1`, the intracellular bacterial bioluminescence was inactive: 116%.

In the case of `CC(Sc1nc2ncccc2o1)C(=O)N1CCCc2ccccc21` (stereo not drawn), the intracellular bacterial bioluminescence was inactive: 73.8%. The result for `Cc1cccc(-c2nc(NC(=O)C(C)Oc3ccccc3Cl)no2)c1` (stereo not drawn) reads inactive: 91.3%. The result for `CN(C)/C=N/c1c(C#N)cnn1-c1ncnc2sc(-c3ccccc3)cc12` reads inactive: 120%. As to `CCc1nc2ccc(NC(=O)c3cc(-c4ccccn4)n[nH]3)cc2[nH]1`, the intracellular bacterial bioluminescence is inactive: 44.4%. `Cc1ccccc1-c1nc(NC(=O)COc2ccc(C(C)C)cc2)no1`: the intracellular bacterial bioluminescence is inactive: 101%. The result for `O=C(CSc1nc2c(oc3ccccc32)c(=O)n1CC1CCCO1)Nc1ccccc1F` (stereo not drawn) reads inactive: 102%; that for `CCOc1ccccc1/C=N/NC(=O)CNC(=O)c1ccc(S(=O)(=O)N(CC)CC)cc1`, inactive: 68.9%; that for `O=C(Nc1ncc(S(=O)(=O)c2ccc([N+](=O)[O-])cc2)s1)c1cccc(F)c1`, inactive: 78.8%. With `Cc1ccc(-c2c(C(F)(F)F)nn3c(N4CCN(c5ccccn5)CC4)cc(C)nc23)cc1` the figure was inactive: 115%. With `NC(=O)c1ccsc1NC(=O)CCSc1ccc(F)cc1` the figure was inactive: 103%. Take `CCOC(=O)c1cc(NC(=O)Nc2ccc(I)cc2)c(C)nc1C`: the intracellular bacterial bioluminescence was inactive: 67.6%. With `Cc1ccccc1-c1ncccc1C(=O)N1CCC(C(=O)NC2CCCCCC2)CC1` the figure was inactive: 91.3%; with `O=C(CCN1CCCCC1)Nc1c(-c2ccccc2)c2cc(Br)ccc2[nH]c1=O`, inactive: 113%; with `O=C(Nc1ccccc1Cl)C1CCN(c2c3c(nc4ncnn24)CCC3)CC1`, inactive: 76%. The result for `COc1ccccc1CNC(=O)C(=O)NCC1OCCN1C(=O)c1ccc2c(c1)OCO2` (stereo not drawn) reads inactive: 98.5%; that for `COc1ccccc1N1CCN(c2cc(C)nc3nc(Cc4cccc(F)c4)nn23)CC1`, inactive: 78%; that for `Cc1ccc2nc(NCc3ccccc3)c(/C=N/c3cccc(Cl)c3)c(=O)n2c1`, inactive: 119%. The result for `Cc1c(C(=O)O)sc2ncnc(NCCc3ccsc3)c12` reads inactive: 96.8%; that for `CCc1cc(-c2csc(S(=O)(=O)N(Cc3ccccc3)C(C)C)c2)on1`, inactive: 78.8%; that for `COC(=O)c1ccc(CSC(=S)NC2CCS(=O)(=O)C2)cc1` (stereo not drawn), inactive: 76.2%. On to `O=C(Nc1cccc(Cl)c1)C1CCN(C(=O)NC2CCCCC2)CC1`, for which the intracellular bacterial bioluminescence is inactive: 91.4%. The result for `COc1cc(C)c(CNC(=O)c2c(-c3ccncc3)noc2C)cc1C(C)C` reads inactive: 120%; that for `O=C(Oc1ccc2ccc(=O)oc2c1)c1ccc(Cl)cc1`, inactive: 105%; that for `COc1ccc(OC)c2[nH]c(=O)c(CCNC(=O)/C=C\c3ccccc3)cc12`, inactive: 78.6%.

Turning to `C=CCn1c(SCC(=O)N2CCN(CCO)CC2)nc2sc3c(c2c1=O)CCC3`, the intracellular bacterial bioluminescence is inactive: 97.1%. The result for `Cc1cccn2c(=O)c(C=O)c(N3CCCC3)nc12` reads inactive: 144%; that for `Cc1cc2c(c(=O)[nH]1)C(c1ccccc1)C(C#N)=C(N)O2` (stereo not drawn), inactive: 136%. With `c1ccc2c(c1)c(NCc1ccncc1)nn1cnnc21` the figure was inactive: 100%. The result for `Cc1ccc(-c2noc(-c3cnn4c(C)c(Cc5ccccc5C)c(C)nc34)n2)cc1` reads inactive: 84.3%; that for `CCOc1ccc(-c2c(C)nn3c(C)c(C(=O)NCc4cccnc4)cnc23)cc1OCC`, inactive: 85.9%. In the case of `CCOc1ccc(-c2noc(CCn3c(=O)[nH]c4ccccc4c3=O)n2)cc1OC`, the intracellular bacterial bioluminescence was inactive: 128%. With `O=C(c1ccc(Cl)cc1)C1CCN(C(=O)Nc2ccc(F)cc2F)CC1` the figure was inactive: 92.7%; with `O=C(CCOc1ccccc1)Nc1nnc(-c2cc(Cl)ccc2Cl)o1`, inactive: 80.8%. The result for `Cc1ccc(NC(=O)CC2SC3=NCCN3C2=O)cc1` (stereo not drawn) reads inactive: 96%; that for `CCOC(=O)C1=C(c2ccccc2)OC(N)=C(C#N)C1c1ccccc1` (stereo not drawn), inactive: 108%; that for `COc1ccccc1C(=O)Nc1ccc(Nc2cc(N(C)C)nc(C)n2)cc1`, inactive: 83.9%. With `CCc1c(C)nc(SCC(=O)N2CCCCCC2)[nH]c1=O` the figure was inactive: 97.5%; with `COc1ccc(CNC(=O)C2CCCN(c3nccc4c(C)nn(C)c34)C2)c(OC)c1` (stereo not drawn), inactive: 103%; with `CCOC(=O)c1ccc(NC(=O)c2ccc(SCCN3CCOCC3)nc2)cc1`, inactive: 114%. Consider `COc1cccc(-c2cc3nc(C)cc(NCc4cccnc4)n3n2)c1`, for which the intracellular bacterial bioluminescence is inactive: 47.2%. The result for `Cc1ccc(C(C)C)c(OCC(=O)N/N=C2/C(=O)N(C)c3ccccc32)c1` reads inactive: 93.2%; that for `Cc1nn(C)c(C)c1CNC(=O)c1cc2n(n1)CCCN(Cc1ccc(F)cc1)C2=O`, inactive: 99.6%; that for `COCCn1/c(=N/C(=O)c2ccc([N+](=O)[O-])s2)sc2cc(F)ccc21`, inactive: 101%. With `CC(=O)NNc1nc(-c2ccccc2)c2cc(Cl)ccc2n1` the figure was inactive: 76.8%; with `CCN1C(=O)C(C)(C)COc2ccc(NC(=O)CCc3ccc(OC)cc3)cc21`, inactive: 71.6%. `COc1cccc(C(c2sc3nc(C)nn3c2O)N2CCOCC2)c1` (stereo not drawn): the intracellular bacterial bioluminescence was inactive: 94.1%. With `COc1ccc(-c2c(C#N)c(SCC(N)=O)nc(C)c2C(=O)Nc2ccccc2)cc1OC` the figure was inactive: 90.5%; with `Cc1nc2ccn(Cc3ccccc3)c(=O)c2cc1C(=O)NC1CCCC1`, inactive: 125%. As to `O=C(Cn1ccn(-c2ccc(Br)cc2)c(=O)c1=O)Nc1ccccc1Cl`, the intracellular bacterial bioluminescence is inactive: 114%. For the compound `COC(=O)c1ccc(C2NC(=O)NC(O)(C(F)(F)F)C2C(=O)c2ccc(F)cc2)cc1` (stereo not drawn), the intracellular bacterial bioluminescence is inactive: 94.5%. The result for `Cc1nc(SCC(=O)c2ccc(Cl)cc2)c(C#N)c(C)c1C` reads inactive: 83.2%; that for `O=C(Nc1ccccc1-c1ccccc1)C1CCN(c2cnccn2)CC1`, inactive: 96.1%; that for `O=C1Nc2c(Br)cc(Br)cc2/C1=N\NC(=O)c1ccco1`, inactive: 109%. For the compound `NC(=O)c1ccc(NC(=O)CSc2nc3ccccc3o2)cc1`, the intracellular bacterial bioluminescence was inactive: 146%.

`Cc1ccccc1NC(=O)Cn1cc(S(=O)(=O)c2ccc(F)cc2)c(=O)c2cc3c(cc21)OCO3`: the intracellular bacterial bioluminescence was inactive: 129%. With `COc1ccc(Nc2nnc(Cc3ccc(F)cc3)c(=O)[nH]2)cc1OC` the figure was inactive: 7.98%. The result for `Cc1occc1-c1nnc2sc(-c3ccc(-c4cccc([N+](=O)[O-])c4)o3)nn12` reads inactive: 97.3%; that for `Cc1ccc(CNC(=O)N2CCC(n3cnc4cccnc43)CC2)cc1`, inactive: 53.3%; that for `COc1ccccc1NC(=O)N(CC(=O)Nc1sc(C)c(C)c1C(N)=O)C1CCCC1`, inactive: 76.9%. With `COc1ccc(C(=O)N2CN(CCCn3ccnc3)Cc3c2sc(C)c3C)cc1` the figure was inactive: 93.2%. As for `CCOC(=O)C1CCN(c2nnc(N3CCCCC3)c3ccccc23)CC1`, the intracellular bacterial bioluminescence was inactive: 41.3%. With `O=C(CSc1ncccc1C(=O)O)Nc1nc2c(s1)CCCC2` the figure was inactive: 107%.

Take `O=c1[nH]ncc(N/N=C\c2ccc(O)cc2)c1Cl`: the intracellular bacterial bioluminescence was inactive: 101%. As to `NC(=O)c1nc(Nc2ccccc2)sc1NC(=O)C1CCCCC1`, the intracellular bacterial bioluminescence is inactive: 90.7%. The result for `O=C(CSc1nc(-c2ccc3c(c2)OCO3)nc2cc(=O)[nH]n12)NCCCc1ccccc1` reads inactive: 129%.
